Data reported in article PMC3461044, “Probing Protein Sequences as Sources for Encrypted Antimicrobial Peptides” (PLoS ONE, 2012).

Columns and labels:
[1] = Far UV circular dichroism of peptides with DMPC LUVs (MRE, α-helix percentage); conditions: for % Helicity 0.01 peptide/DMPC (mol/mol) (Greenfield 69) / % Helicity 0.01 peptide/DMPC (mol/mol) (Chen 74): DMPC LUVs; for % Helicity 0.01 peptide/DMPC (mol/mol) (Greenfield 69): from [q]208 nm, Greenfield et al. 1969; for % Helicity 0.01 peptide/DMPC (mol/mol) (Chen 74): from [q]222 nm, Chen et al. 1974; for [q]208 nm 0.01 peptide/DMPC (mol/mol) (Greenfield 69): Mean Residue Ellipticity at 208 nm; for [q]208 nm 0.01 peptide/DMPC (mol/mol) (Greenfield 69) / [q]222 nm 0.01 peptide/DMPC (mol/mol) (Chen 74): titrated with DMPC LUVs; for [q]222 nm 0.01 peptide/DMPC (mol/mol) (Chen 74): Mean Residue Ellipticity at 222 nm
[2] = Differential scanning calorimetry of the main phase transition of LUVs with peptide; conditions: pH 7.4, non-two state fit; for Tm broad, fitted (transition temperature): 0.5 mM DMPC LUVs + peptide 4 mol% (20 µM), 20 mM sodium phosphate, 150 mM NaCl, 1°C/min; for Tm broad, fitted (transition temperature) / DH broad, fitted (transition enthalpy) / DHvh broad, fitted (van't Hoff transition enthalpy): broad component; for DH broad, fitted (transition enthalpy) / DHvh broad, fitted (van't Hoff transition enthalpy) / DH sharp, fitted (transition enthalpy) / DHvh sharp, fitted (van't Hoff transition enthalpy) / Tm sharp, fitted (transition temperature): 0.5 mM DMPC LUVs + peptide 4 mol%; for DH sharp, fitted (transition enthalpy) / DHvh sharp, fitted (van't Hoff transition enthalpy) / Tm sharp, fitted (transition temperature): sharp component
[3] = Far UV circular dichroism of peptides with 2:1 DMPC:DMPG LUVs (MRE, α-helix percentage); conditions: 0.01 peptide/lipid (mol/mol); for % Helicity 0.01 peptide/(2:1 DMPC/DMPG) (mol/mol) (Greenfield 69) / % Helicity 0.01 peptide/(2:1 DMPC/DMPG) (mol/mol): 2:1 DMPC/DMPG LUVs; for % Helicity 0.01 peptide/(2:1 DMPC/DMPG) (mol/mol) (Greenfield 69): from [q]208 nm, Greenfield et al. 1969; for % Helicity 0.01 peptide/(2:1 DMPC/DMPG) (mol/mol): from [q]222 nm, Chen et al. 1974; for [q]208 nm 0.01 peptide/(2:1 DMPC/DMPG) (mol/mol) (Greenfield 69): Mean Residue Ellipticity at 208 nm; for [q]208 nm 0.01 peptide/(2:1 DMPC/DMPG) (mol/mol) (Greenfield 69) / [q]222 nm 0.01 peptide/(2:1 DMPC/DMPG) (mol/mol) (Chen 74): titrated with 2:1 DMPC/DMPG LUVs; for [q]222 nm 0.01 peptide/(2:1 DMPC/DMPG) (mol/mol) (Chen 74): Mean Residue Ellipticity at 222 nm

Sequence	% Helicity 0.01 peptide/DMPC (mol/mol) (Greenfield 69) [1] [%]	% Helicity 0.01 peptide/DMPC (mol/mol) (Chen 74) [1] [%]	[q]208 nm 0.01 peptide/DMPC (mol/mol) (Greenfield 69) [1]	[q]222 nm 0.01 peptide/DMPC (mol/mol) (Chen 74) [1]	Tm broad, fitted (transition temperature) [2] [°C]	DH broad, fitted (transition enthalpy) [2] [kcal/mol]	DHvh broad, fitted (van't Hoff transition enthalpy) [2] [kcal/mol]	DH sharp, fitted (transition enthalpy) [2] [kcal/mol]	DHvh sharp, fitted (van't Hoff transition enthalpy) [2] [kcal/mol]	Tm sharp, fitted (transition temperature) [2] [°C]	% Helicity 0.01 peptide/(2:1 DMPC/DMPG) (mol/mol) (Greenfield 69) [3] [%]	% Helicity 0.01 peptide/(2:1 DMPC/DMPG) (mol/mol) [3] [%]	[q]208 nm 0.01 peptide/(2:1 DMPC/DMPG) (mol/mol) (Greenfield 69) [3]	[q]222 nm 0.01 peptide/(2:1 DMPC/DMPG) (mol/mol) (Chen 74) [3]
FKALRALRLEDLRIPTSYIK [A3KLW0(117–136), putative IAP; fragment of Rubisco large chain, Anisophyllea pomifera]	23.1	8.8	-10693	-3087	23.48	2.27	319	2.11	965	24.2	19.9	8.5	-9759	-3008
FVTNSKRLAEGIEKGVGNSILIKVN [Q8KG25(327–351), putative IAP; fragment of Enolase 2, Chlorobium tepidum]	9.3	15	-6689	-5287	23.49	2.6	298	2.08	1010	24.2	7.3	17	-6110	-6002
KAGLQFPVGRIARFLK [B4FGE3(22–37), putative IAP; fragment of Histone H2A, Zea mays]	-0.567	3	-3836	-1051	23.52	2.97	301	2.25	1040	24.22	3.1	5.8	-4889	-2047
